Data set [1] in a line: general procedure: Fmoc solid-phase peptide synthesis; Fmoc-Gly-Wang resin; HBTU/DiEA. The following applies: whole synthesis, HPLC and capillary electrophoresis, scale 0.5 mmol.
Data set [2] in a line: general procedure: Fmoc solid-phase peptide synthesis; bis(2-sulfanylethyl)amino trityl resin (Examples 5/6); Fmoc-Gly-Wang; Novasyn TGR; HBTU/DiEA. Conditions: whole synthesis, scale of the general procedure 0.1 mmol to 0.5 mmol; for isolated yield: final yield.

In the case of H-GFGQGFGG-OH, the “crude HPLC purity” value in data set [1] stood at 79%.
Turning to H-ILKEPVHGA -N(CH2CH2SH)2, the “final HPLC purity” value in data set [2] worked out at 97%.
Consider H-ILKEPVHGG-N(CH2CH2SH)2, for which, in data set [2], the “final HPLC purity” value is recorded as 96% and the isolated yield is on record as 17%.
Taken in the same sequence, the figures for H-ILKEPVHGV-N(CH2CH2SH)2 were 99% and 23%.
H-ILKEPVHGY-N(CH2CH2SH)2 registered an isolated yield in data set [2] of 20%.

These data come from patent US9029503 (dated 2015).
